Laboratory results published in patent US20050159377A1, “Methods of modulating activity of prokaryotic ribosomes” (SmithKline Beecham Corporation, priority 2000, published 2005).
Some entries share one result that the patent states for a list of compounds.

Tested on: E. coli 23S rRNA
Test: RNase H cleavage of photolabeled 23S rRNA
Format: binding

C[C@@H]1CC[C@@]23CCC(=O)[C@H]2[C@]1(C)[C@H](OC(=O)CSCC1CCN(C)CC1)C[C@@](C)(C(=O)OCc1cc(N=[N+]=[N-])cc([N+](=O)[O-])c1)[C@@H](O)[C@@H]3C [SB-328636]
23S rRNA fragments carrying radioactivity (nucleotides) (RNase H fragments electroeluted, scintillation counting): 1971-2607 | 23S rRNA region photolabeled, identified by RNase H digestion (nucleotides) (gel, phosphorimager): 1971-2607
